Test results: PubChem BioAssay AID328 (DTP/NCI, 2004)
The list is a part of this screen's results and no random one: it gathers tests that were run many times, whatever their T/C, doses with no T/C, and many T/C values between a quarter and a half above the control. Other doses and runs of a compound stand elsewhere. T/C: endpoint of the treated group in % of that of the vehicle group. Some entries give survivors of the animals treated and no T/C: the source files T/C as zero there, which appears to mark a toxic dose or a test without result, not a measured value. Some survivor counts are full or nearly so, which does not show that the dose was tolerated: the source hardly ever lists a survival T/C far under the control, and the zero likely stands for such cases as well. Counts of survivors are from the toxicity check (mostly the fifth day) where no day follows; animals may have died later. Schedules are NCI's codes, taken here to give the interval after Q, in days (D) or hours (H), and the number of doses after X. Some entries were tested several times; the results are listed from low to high. Where survival is the endpoint, the PubChem record calls one and a half times the control and up active, and a quarter to a half above the control has no call in these data; cut-offs in other NCI protocols can differ. Some T/C values are followed by the survivors on the day toxicity was checked, most often the fifth; without a count, all were alive then. Marks such as (2×) count equal records among those shown. Some schedules carry Z or #; the key to these is not given.

Tested on: BDF1 mice, P388 leukemia ip, median survival T/C
Assay: NCI In Vivo Anticancer Drug Screen. Data for tumor model P388 Leukemia (intraperitoneal) in B6D2F1 (BDF1) mice
Conditions: T/C endpoint: median survival time, higher T/C = longer survival
In short: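 Antitumour effect was judged in vivo: survival in drug-treated mice, normalised to that of vehicle-dosed controls, gives the reported T/C.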

COc1cccc2c1C(=O)c1c(O)c3c(c(O)c1C2=O)C[C@@](O)(C(=O)CO)C[C@@H]3OC1CC(N)C(O)C(C)O1 (some centres not stated)
T/C (dose: 4.0 mg/kg/injection, schedule: Q04DX003 (ip), vehicle: saline, evaluated on day 11): 94 % of control
T/C (dose: 4.0 mg/kg/injection, schedule: Q04DX003 (ip), vehicle: saline, evaluated on day 60): 229 and 571 % of control
T/C (dose: 4.0 mg/kg/injection, schedule: Q04DX003 (ip), vehicle: water, evaluated on day 30): 116, 129, 135 [4 of 6 alive], 135 [5 of 6 alive], 144, 152, 163 % of control [5 of 6 alive]
T/C (dose: 4.0 mg/kg/injection, schedule: Q04DX003 (ip), vehicle: water, evaluated on day 32): 139 % of control
T/C (dose: 4.0 mg/kg/injection, schedule: Q04DX003 (ip), vehicle: water, evaluated on day 34): 219 % of control [7 of 8 alive]
T/C (dose: 4.0 mg/kg/injection, schedule: Q04DX003 (ip), vehicle: water, evaluated on day 38): 94 % of control [7 of 8 alive]
T/C (dose: 4.0 mg/kg/injection, schedule: Q04DX003 (ip), vehicle: water, evaluated on day 41): 245 % of control
T/C (dose: 4.0 mg/kg/injection, schedule: Q04DX003 (ip), vehicle: water, evaluated on day 46): 209 % of control
T/C (dose: 4.0 mg/kg/injection, schedule: Q04DX003 (ip), vehicle: water, evaluated on day 60): 174, 181, 208, 224, 241, 277, 293, 330 % of control
survivor count (dose: 4.0 mg/kg/injection, schedule: Q04DX003 (ip), vehicle: water): 3 of 3
T/C (dose: 4.0 mg/kg/injection, schedule: Q04DX004 (ip), vehicle: saline): 146 % of control
T/C (dose: 4.0 mg/kg/injection, schedule: Q04DX009 (ip), vehicle: water): 132 % of control
T/C (dose: 4.0 mg/kg/injection, schedule: Q## X003 (ip), vehicle: saline): 141 % of control
T/C (dose: 4.5 mg/kg/injection, schedule: Q04DX003 (sc), vehicle: saline): 130 % of control
T/C (dose: 4.8 mg/kg/injection, schedule: Q04DX003 (ip), vehicle: saline, evaluated on day 9): 183 % of control
T/C (dose: 4.8 mg/kg/injection, schedule: Q04DX003 (ip), vehicle: saline, evaluated on day 60): 92, 115, 121, 126, 132, 200, 220, 238, 291 % of control
T/C (dose: 5.0 mg/kg/injection, schedule: Q01DX001 (ip), vehicle: saline): 149 % of control
T/C (dose: 5.0 mg/kg/injection, schedule: Q01DX001 (sc), vehicle: saline): 135 % of control
T/C (dose: 5.0 mg/kg/injection, schedule: Q04DX003 (ip), vehicle: saline, evaluated on day 5): 100, 102, 111 (2×), 153, 163, 166, 167 (2×), 175, 176, 178, 180, 216, 344, 450, 520, 553 % of control (2×)
T/C (dose: 5.0 mg/kg/injection, schedule: Q04DX003 (ip), vehicle: saline, evaluated on day 8): 158 % of control
T/C (dose: 5.0 mg/kg/injection, schedule: Q04DX003 (ip), vehicle: saline, evaluated on day 45): 194 % of control
T/C (dose: 5.0 mg/kg/injection, schedule: Q04DX003 (ip), vehicle: saline, evaluated on day 60): 100, 102, 111 (2×), 153, 163, 166, 167 (2×), 175, 178, 180, 216, 305, 344, 450, 520, 553 (2×), 571 % of control
T/C (dose: 5.0 mg/kg/injection, schedule: Q04DX003 (ip), vehicle: water, evaluated on day 7): 157 and 198 % of control
T/C (dose: 5.0 mg/kg/injection, schedule: Q04DX003 (ip), vehicle: water, evaluated on day 62): 157 [7 of 8 alive] and 198 % of control
T/C (dose: 5.0 mg/kg/injection, schedule: Q04DX004 (ip), vehicle: saline): 130 % of control
survivor count (dose: 6.0 mg/kg/injection, schedule: Q01DX004 (ip), vehicle: saline with Tween-80): 7 of 7
survivor count (dose: 6.0 mg/kg/injection, schedule: Q03HX008 (ip), vehicle: saline): 3 of 10 and 7 of 10
survivor count (dose: 6.0 mg/kg/injection, schedule: Q03HX008 (sc), vehicle: saline): 5 of 10
T/C (dose: 6.0 mg/kg/injection, schedule: Q04DX003 (sc), vehicle: saline): 130 % of control
T/C (dose: 6.6 mg/kg/injection, schedule: Q01DX001 (ip), vehicle: saline): 147, 237, 247, 256, 260, 300, 481, 527, 538, 571 % of control
T/C (dose: 6.67 mg/kg/injection, schedule: Q04DX003 (ip), vehicle: water): 94, 104, 133 (2×), 149, 163, 209, 392 % of control
T/C (dose: 6.7 mg/kg/injection, schedule: Q01DX001 (ip), vehicle: saline, evaluated on day 5): 132 and 230 % of control
T/C (dose: 6.7 mg/kg/injection, schedule: Q01DX001 (ip), vehicle: saline, evaluated on day 60): 227, 292, 516, 532, 562 % of control
T/C (dose: 7.5 mg/kg/injection, schedule: Q01DX001 (ip), vehicle: saline): 141 % of control
T/C (dose: 7.5 mg/kg/injection, schedule: Q04DX003 (ip), vehicle: saline, evaluated on day 5): 104, 107, 117, 120, 152, 159, 185 (2×), 189, 190, 194, 206, 207 (2×), 551, 586 % of control
T/C (dose: 7.5 mg/kg/injection, schedule: Q04DX003 (ip), vehicle: saline, evaluated on day 8): 183 % of control
T/C (dose: 7.5 mg/kg/injection, schedule: Q04DX003 (ip), vehicle: saline, evaluated on day 60): 104, 107, 117, 120, 152, 159, 185 (2×), 189, 190, 194, 206, 207 (2×), 551, 586 % of control
T/C (dose: 8.0 mg/kg/injection, schedule: Q01DX001 (ip), vehicle: saline, evaluated on day 1): 250 % of control
T/C (dose: 8.0 mg/kg/injection, schedule: Q01DX001 (ip), vehicle: saline, evaluated on day 5): 242, 261, 295, 486 % of control
T/C (dose: 8.0 mg/kg/injection, schedule: Q01DX001 (ip), vehicle: saline, evaluated on day 6): 250 % of control
T/C (dose: 8.0 mg/kg/injection, schedule: Q01DX001 (ip), vehicle: saline, evaluated on day 8): 207 % of control
T/C (dose: 8.0 mg/kg/injection, schedule: Q01DX001 (ip), vehicle: saline, evaluated on day 11): 97 % of control
T/C (dose: 8.0 mg/kg/injection, schedule: Q01DX001 (ip), vehicle: saline, evaluated on day 90): 295 % of control
survivor count (dose: 8.0 mg/kg/injection, schedule: Q03HX008 (ip), vehicle: saline): 0 of 10
survivor count (dose: 8.0 mg/kg/injection, schedule: Q03HX008 (sc), vehicle: saline): 2 of 10
T/C (dose: 8.0 mg/kg/injection, schedule: Q04DX003 (ip), vehicle: saline, evaluated on day 9): 181 and 192 % of control
T/C (dose: 8.0 mg/kg/injection, schedule: Q04DX003 (ip), vehicle: saline, evaluated on day 60): 87, 89, 97, 110 % of control
survivor count (dose: 8.0 mg/kg/injection, schedule: Q04DX003 (ip), vehicle: saline): 8 of 8
T/C (dose: 8.0 mg/kg/injection, schedule: Q04DX003 (ip), vehicle: water, evaluated on day 30): 155, 160, 171, 173, 179, 182, 198 % of control [5 of 6 alive]
T/C (dose: 8.0 mg/kg/injection, schedule: Q04DX003 (ip), vehicle: water, evaluated on day 34): 114 % of control
T/C (dose: 8.0 mg/kg/injection, schedule: Q04DX003 (ip), vehicle: water, evaluated on day 41): 125 % of control
T/C (dose: 8.0 mg/kg/injection, schedule: Q04DX003 (ip), vehicle: water, evaluated on day 60): 86 % of control
